These results are taken from paper PMC7641331, “Ctf18-RFC and DNA Pol ϵ form a stable leading strand polymerase/clamp loader complex required for normal and perturbed DNA replication” (Nucleic Acids Research, 2019).

Amino acid sequences for entries named in this document (tags omitted). A change or cut given only in a name is not applied to a line headed by its entry.
UniProt P49956: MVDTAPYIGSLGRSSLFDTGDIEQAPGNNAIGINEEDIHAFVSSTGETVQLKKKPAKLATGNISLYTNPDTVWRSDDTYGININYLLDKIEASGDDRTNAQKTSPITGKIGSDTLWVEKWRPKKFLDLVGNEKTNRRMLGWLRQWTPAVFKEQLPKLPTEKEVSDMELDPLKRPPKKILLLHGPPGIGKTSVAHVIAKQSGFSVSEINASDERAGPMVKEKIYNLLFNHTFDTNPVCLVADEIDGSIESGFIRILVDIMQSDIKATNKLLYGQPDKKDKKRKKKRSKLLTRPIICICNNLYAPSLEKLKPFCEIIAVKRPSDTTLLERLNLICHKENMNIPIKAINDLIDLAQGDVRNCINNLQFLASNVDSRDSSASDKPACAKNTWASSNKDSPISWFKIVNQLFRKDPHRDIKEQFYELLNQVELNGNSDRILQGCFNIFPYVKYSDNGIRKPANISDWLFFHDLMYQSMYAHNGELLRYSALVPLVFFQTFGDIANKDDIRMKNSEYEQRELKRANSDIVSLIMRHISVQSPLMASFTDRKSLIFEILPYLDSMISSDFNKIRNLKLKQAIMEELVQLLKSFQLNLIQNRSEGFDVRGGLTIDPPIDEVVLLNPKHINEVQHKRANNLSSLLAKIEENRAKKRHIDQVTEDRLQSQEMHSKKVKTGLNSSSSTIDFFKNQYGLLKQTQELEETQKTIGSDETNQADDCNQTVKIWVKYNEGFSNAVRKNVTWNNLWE

Results are given in words; binding and its absence hold for the method and conditions named. Binding calls can cover weak binding; strength is not graded here.

The target of test [1] is T1, Pol2CAT, the complete catalytic domain of Pol2 (residues 1–1192), exonuclease-deficient (D290A/E292A) (S. cerevisiae) (UniProt P21951).
T1 sequence: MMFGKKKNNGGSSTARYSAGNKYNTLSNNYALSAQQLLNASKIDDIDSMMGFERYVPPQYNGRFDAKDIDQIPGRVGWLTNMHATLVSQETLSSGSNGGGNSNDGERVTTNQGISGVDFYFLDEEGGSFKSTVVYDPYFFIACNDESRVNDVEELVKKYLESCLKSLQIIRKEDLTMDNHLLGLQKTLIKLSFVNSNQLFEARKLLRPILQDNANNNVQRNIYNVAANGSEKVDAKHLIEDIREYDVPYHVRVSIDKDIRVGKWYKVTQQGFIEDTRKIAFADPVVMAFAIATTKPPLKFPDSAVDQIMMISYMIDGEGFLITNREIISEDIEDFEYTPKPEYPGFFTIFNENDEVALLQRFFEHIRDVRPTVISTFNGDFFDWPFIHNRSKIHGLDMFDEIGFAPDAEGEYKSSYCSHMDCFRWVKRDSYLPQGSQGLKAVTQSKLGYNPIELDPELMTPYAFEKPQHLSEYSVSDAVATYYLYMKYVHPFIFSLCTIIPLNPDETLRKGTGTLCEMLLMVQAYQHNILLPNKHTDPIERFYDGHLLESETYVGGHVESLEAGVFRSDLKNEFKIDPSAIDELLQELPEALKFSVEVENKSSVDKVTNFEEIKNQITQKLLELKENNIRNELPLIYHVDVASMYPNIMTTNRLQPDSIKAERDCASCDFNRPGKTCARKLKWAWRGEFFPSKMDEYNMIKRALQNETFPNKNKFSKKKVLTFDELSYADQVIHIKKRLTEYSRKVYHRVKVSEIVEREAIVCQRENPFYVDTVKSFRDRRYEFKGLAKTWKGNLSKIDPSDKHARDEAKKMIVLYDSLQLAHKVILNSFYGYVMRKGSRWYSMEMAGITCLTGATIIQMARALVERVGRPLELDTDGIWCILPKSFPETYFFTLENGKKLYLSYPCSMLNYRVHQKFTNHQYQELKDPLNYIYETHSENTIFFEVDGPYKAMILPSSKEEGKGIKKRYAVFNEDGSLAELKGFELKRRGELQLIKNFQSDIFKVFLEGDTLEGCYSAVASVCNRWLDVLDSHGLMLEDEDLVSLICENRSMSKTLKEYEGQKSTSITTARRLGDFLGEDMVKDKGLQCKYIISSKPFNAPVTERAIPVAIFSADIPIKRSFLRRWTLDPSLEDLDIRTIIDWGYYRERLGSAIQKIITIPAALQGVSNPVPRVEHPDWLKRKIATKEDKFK
Briefly: cryo-EM structure; 2 μM Ctf18-1-8, Pol2CAT and P1P2* DNA in 20 mM HEPES pH 7.5, 160 mM NaCl, 1 mM TCEP; GraFix sucrose gradient with 0.15% glutaraldehyde; only DNA-free classes refined (Class 1 4.2 Å, Class 2 5.8 Å); both purified.

In test [2] the target is T1, Pol2CAT, the complete catalytic domain of Pol2 (residues 1–1192), exonuclease-deficient (D290A/E292A) (S. cerevisiae). Briefly: native gel or EMSA; supershift of Pol2CAT-DNA: 50 nM P1P2, 125 nM Pol2CAT and 125, 250 and 500 nM Ctf18-1-8 variant; 25 mM HEPES pH 7.5, 60 mM KCl, 10% glycerol, 1 mM TCEP; 20 min on ice; 6% Tris-glycine gel at 4°C; both purified. For orientation: In EMSA bound probe runs differently from free probe, usually more slowly.

Test [3] deals with Pol2(1–528), truncated construct of the Pol ϵ catalytic domain (S. cerevisiae) (UniProt P21951). Nature of the test: crystal structure; Pol2(1–528) and Ctf18-1-8 mixed 1:1, purified by SEC, crystallised at 5 mg/ml in 0.2 M NaCl, 14% PEG 20 000, 0.1 M HEPES pH 7.0; new crystal form; both purified.
Test [4] addresses Ctf18 (C-terminus, chain of the recombinant Ctf18-1-8 module) (S. cerevisiae) (UniProt P49956). Nature of the test: cryo-EM structure; 2 μM Ctf18-1-8, Pol2CAT and P1P2* DNA in 20 mM HEPES pH 7.5, 160 mM NaCl, 1 mM TCEP; GraFix sucrose gradient with 0.15% glutaraldehyde; only DNA-free classes refined (Class 1 4.2 Å, Class 2 5.8 Å); both purified.

On to “Ctf18 (C-terminus, chain of the recombinant Ctf18-1-8 module) (from UniProt P49956) (domain or fragment)”, for which, in test [1], the binding result is listed as “binds”.
Consider “Ctf18-1-8 variant Dcc1-3A (Dcc1 K364A/R376A/R380A) (S. cerevisiae) (complex)”, for which the binding entry in test [2] is “binds”.

B1: Dcc1 (chain of the recombinant Ctf18-1-8 module) (natural protein, S. cerevisiae)
chain: MSINLHSAPEYDPSYKLIQLTPELLDIIQDPVQNHQLRFKSLDKDKSEVVLCSHDKTWVLKQRKHSNTVLLMREFVPEQPITFDETLLFGLSKPYMDVVGFAKTESEFETRETHGELNLNSVPIYNGELDFSDKIMKRSSTKVIGTLEELLENSPCSALEGISKWHKIGGSVKDGVLCILSQDFLFKALHVLLMSAMAESLDLQHLNVEDTHHAVGKDIEDEFNPYTREIIETVLNKFAVQEQEAENNTWRLRIPFIAQWYGIQALRKYVSGISMPIDEFLIKWKSLFPPFFPCDIDIDMLRGYHFKPTDKTVQYIAKSTLPMDPKERFKVLFRLQSQWDLEDIKPLIEELNSRGMKIDSFIMKYARRKRLGKKTVVTSR
notes: Dcc1, S. cerevisiae; The Dcc1 chain of m2, written alone for the pairs that touch in the structures; also called Dcc1WH3 (its last winged helix domain)
As for B1, the binding result in test [3] and in test [4] was “binds” each time.

B2: Ctf8 (chain of the recombinant Ctf18-1-8 module) (protein, UniProt P38877 1-133)
chain: MPSVDIDASQWQKLTQSREKQTTVITPLGMMMLEIQGELELPKDFASLARRDSPNEGRFSEQDGETLIRFGSLQIDGERATLFVGKKQRLLGKVTKLDVPMGIMHFNSKDNKVELVDVMKYKVIFKDRPLPIM
Take B2: the binding result in test [4] is on record as “binds”.
